Measurements: PubChem BioAssay AID540276 (National Center for Advancing Translational Sciences (NCATS), 2011)
Among all 300,000 compounds or so, about 5,400 (1.8%) were called active. The inconclusive results got no clear call from the source; some entries with a clear call stand among them for comparison. Calls come from the whole dose curve; tested in HEK293 cells. A potency beside an inconclusive call is a rough fit, not a confirmed value.

Experiment: qHTS for inhibitors of binding or entry into cells for Marburg Virus
Conditions: Marburg virus pseudotyped entry inhibition, cell reporter; activity change, negative = inhibition: at 37.8 µM (top of the series) unless noted
% is set by controls: 0 for no effect and ±100 for the full control effect; potency is the fitted concentration of half-maximal effect.

Compound	Potency	activity change, negative = inhibition
O=C(NNC(=O)c1csc(N2CCOCC2)n1)c1ccc(Cl)nc1	inconclusive: 11.2 µM [activator, partial curve, poor fit]	
O=c1c(Cl)c(NCc2ccccc2)cnn1C12CC3CC(CC(C3)C1)C2	inconclusive: 3.16 µM [activator, single point]	
CC1C(=O)Nc2ccc(S(=O)(=O)Nc3ccccc3Br)cc2NC1=O (configuration not stated)	inconclusive: 12.6 µM [inhibitor, single point]	
COc1cc(Cl)ccc1OC(=O)c1cn(-c2ccccc2OC)c(=O)c2ccccc12		inconclusive: 3.52% [activator] [at 46.1 µM]
N/C(=N\NC(=O)Nc1ccc(Cl)cc1)c1ccccn1		inactive: 26.2%
COC(=O)c1ccc(COc2cccc3c2CCN(Cc2ccccc2)C3=O)o1	inconclusive: 35.5 µM [inhibitor, partial curve, poor fit]	
O=C(O)c1cc(-c2ccc(/C=N/N3C(=O)C4C5C=CC(CC5)C4C3=O)o2)ccc1Cl (configuration not stated)		inactive: 2.17% [at 46.1 µM]
CCC(C)c1ccc(O)c(N)c1 (configuration not stated)	inconclusive: 23.1 µM [activator, single point]	
Cn1c(C(=O)NCc2ccccn2)cc2c(=O)n3ccccc3nc21	inconclusive: 1.16 µM [activator, partial curve, poor fit]	
Cc1nn(-c2ccc(C(F)(F)F)cn2)c(C)c1Oc1ccccc1O		inactive: -19.9%
COc1cc(NCCCNC(C)C)c2nccc(C)c2c1	inconclusive: 7.94 µM [inhibitor, partial curve, poor fit]	
Fc1cccc(Cl)c1CNc1n[nH]c(-c2ccco2)n1	inconclusive: 3.16 µM [activator, single point]	
CSc1ccc(/C=N/n2c(C3CCCCC3)n[nH]c2=S)cc1	inconclusive: 28.2 µM [inhibitor, partial curve, poor fit]	
O=C(COc1ccc2ccccc2c1)NNC(=O)c1cnccn1		inactive: -41.2%
CCCN(C(=O)c1cc(-c2ccco2)nc2ccccc12)c1c(N)n(Cc2ccccc2)c(=O)[nH]c1=O		inactive: -21.4%
CCCCC(=O)NS(=O)(=O)c1ccc(NS(C)(=O)=O)cc1		inactive: 3.49%
Cc1cc(C)c(S(=O)(=O)NC2CC(C)(C)NC(C)(C)C2)cc1C	inconclusive: 35.5 µM [inhibitor, single point]	
Cn1c(-c2ccccc2)cnc1NCc1cc2c(cc1[N+](=O)[O-])OCO2	inconclusive: 7.08 µM [inhibitor, full curve]	
CCN(C(=O)CSc1nc2cc(C(=O)OC)ccc2c(=O)n1Cc1ccco1)c1cccc(C)c1	inconclusive: 5.17 µM [inhibitor, full curve, poor fit]	
CC(=O)c1cccc(N(C(=O)Cn2nnc3ccccc32)C(C(=O)NCc2ccccc2)c2ccc(F)cc2)c1 (configuration not stated)	inconclusive: 3.98 µM [activator, full curve, poor fit]	
C[C@H]1[C@@H](C(=O)N2CCCC2)CC(=O)C(=NOCc2ccccc2)C[C@H]1c1ccccc1		inactive: 0.298% [at 14.2 µM]
CC1CCCC(NC(=O)COC(=O)[C@@H](NC(=O)c2ccc(F)cc2)C(C)C)C1C (some centres not stated)	inconclusive: 3.98 µM [inhibitor, full curve]	
Cc1c(O)c(CN2CCCC2)cc2c1oc(=O)c1ccccc12	inactive	

Compound	Potency	activity change, negative = inhibition
CCOc1ccccc1C(=O)Nc1ccc2nc(N3CCN(c4ncccn4)CC3)cc(C)c2c1	active: 13 µM	
CCCCNC(=O)CN1C(=O)CSc2ccc(S(=O)(=O)N3CCC(C)CC3)cc21	inconclusive: 3.55 µM [inhibitor, single point]	
Cc1ccc(-c2nnn(CC(=O)N3CCCc4ccccc43)n2)cc1	inconclusive: 0.146 µM [inhibitor, partial curve, poor fit]	
O=C(Nc1nnc(Cc2ccccc2)s1)c1ccccc1	inconclusive: 6.31 µM [activator, full curve]	
COc1ccccc1C(=O)c1c(N)c(-c2nc(-c3ccccc3)cs2)c2ccccn12		inactive: -23% [at 46.1 µM]
COc1ccc(S(=O)(=O)NCc2ccccn2)cc1NC(=O)c1ccccc1F	inconclusive: 0.562 µM [inhibitor, full curve, poor fit]	
O=C(CC(c1ccco1)C1CCCCC1=O)c1ccco1 (configuration not stated)		inactive: 2.2%
COc1ccc(OCCOc2ccc(S(=O)(=O)N3CCCC3)cc2[N+](=O)[O-])cc1	inconclusive: 6.31 µM [activator, single point]	
COc1cccc(NC(=S)NCc2ccccn2)c1	inconclusive: 15.8 µM [activator, single point]	
COc1ccccc1-c1noc(-c2ccc(N(C)Cc3ccccc3)c([N+](=O)[O-])c2)n1		inactive: 2.06% [at 46.1 µM]
CC(C)CN1CN(Cc2ccco2)CNC1=S	inconclusive: 5.01 µM [activator, full curve, poor fit]	
O=C(NCCc1ccccc1)c1ccccc1NS(=O)(=O)N1CCCC1		inactive: 1.47%
O=C(NCc1ccccn1)c1nc(Cn2cc([N+](=O)[O-])cn2)no1		inactive: 1.55% [at 46.1 µM]
CCCOP(=O)(c1ccc(N(C)C)cc1)C(O)c1ccc(Br)cc1 (configuration not stated)	inconclusive: 0.112 µM [inhibitor, full curve, poor fit]	
Cc1c(NC(=O)c2ccc3c4c(cccc24)CC3)c(=O)n(-c2ccccc2)n1C		inactive: -3.19%
O=C(CNC(=O)c1ccc(-c2ccccc2)cc1)Nc1cccc(CO)c1	inconclusive: 17.8 µM [activator, single point]	
COc1ccc(Cl)cc1NC(=O)CN(C)C(=O)c1cc2ccccc2cc1OC	inconclusive: 1.26 µM [activator, single point]	
Cc1cc(NC(=O)CSc2nc(-c3ccco3)cc(C(F)(F)F)n2)no1	inconclusive: 0.282 µM [inhibitor, full curve]	
CCC(C)NC(=O)C1CCN(C(=O)N(C)C)CC1 (configuration not stated)	inconclusive: 29.1 µM [activator, single point]	
O=C(C[n+]1ccc(C(=O)c2ccccc2)cc1)Nc1ccc(C(F)(F)F)cc1	inconclusive: 35.5 µM [inhibitor, single point]	
CCCc1cc(N2CCN(C(=O)c3ccco3)CC2)n2c(nc3ccccc32)c1C#N	inconclusive: 6.51 µM [inhibitor, full curve, poor fit]	
COc1ccc(CCNC(=O)/C=C/c2ccc3ccccc3n2)cc1OC	inconclusive: 0.794 µM [inhibitor, full curve, poor fit]	
Cc1ccnc(N2C(=O)c3ccccc3C2=O)c1	inconclusive: 20 µM [activator, partial curve, poor fit]	

Compound	Potency	activity change, negative = inhibition
Cc1ccc2nc(NC(=O)CSc3nc(=O)n(CCCN(C)C)c4c3CCC4)sc2c1	inconclusive: 7.08 µM [inhibitor, partial curve, poor fit]	
COc1ccc(CCNC(=O)c2cc([N+](=O)[O-])ccc2N2CCOCC2)cc1	inconclusive: 35.5 µM [inhibitor, single point]	
S=C(NCCc1ccccc1)NC1CC2CCC(C1)N2Cc1ccccc1 (configuration not stated)	inconclusive: 10 µM [inhibitor, partial curve, poor fit]	
CCC(=O)Oc1ccc(-c2cnc3ccccc3n2)cc1	inconclusive: 29.1 µM [inhibitor, single point]	
CCc1ccc(C2C3=C(CC(C)(C)CC3=O)Nc3c2c(=O)[nH]c2nc(C)nn32)cc1 (configuration not stated)	inconclusive: 1.64 µM [activator, partial curve, poor fit]	
CC(Oc1ccc(F)cc1)C(=O)Nc1ccc2ccccc2c1 (configuration not stated)	active: 11.6 µM	
CCOc1ccc(CNCc2c(C(=O)O)c(C)n(Cc3ccc(F)cc3Cl)c2C)cc1	inconclusive: 3.16 µM [inhibitor, partial curve, poor fit]	
C=CCNC(NC(=O)c1ccccc1)(C(=O)OCC)C(F)(F)F (configuration not stated)		inactive: 14%
COc1ccc(CN2CCC(CO)(CCOc3ccccc3)CC2)c(OC)c1C	inconclusive: 4.47 µM [inhibitor, full curve, poor fit]	
Nc1nonc1C(=O)N/N=C/c1cc2c(cc1[N+](=O)[O-])OCO2	inconclusive: 2 µM [activator, partial curve, poor fit]	
Cc1cc(C)cc(C(=O)N2CCC(CCC(=O)NC3CC3)CC2)c1	inconclusive: 11.2 µM [activator, partial curve, poor fit]	
N/C(=N\OC(=O)Cc1cccs1)c1ccc(Br)cc1	inconclusive: 20 µM [activator, single point]	
CSc1ncc(Cl)c(C(=O)Nc2nc3ccc(F)cc3s2)n1		inactive: 10.7% [at 46.1 µM]
COc1ccc(/C=C/C(=O)c2cc(Br)ccc(=O)c2O)cc1	inconclusive: 35.5 µM [inhibitor, single point]	
COc1ccc(NC(=S)NCC2CCCO2)c(C)c1 (configuration not stated)	inconclusive: 10 µM [activator, partial curve, poor fit]	
Cc1cc2oc(=O)cc(CN(C)Cc3ccc(OC(F)F)cc3)c2cc1Cl	inconclusive: 25.1 µM [inhibitor, single point]	
COc1cc(C=CC(=O)c2cc(OC)c(OC)c(OC)c2)cc(OC)c1OC	inconclusive: 2 µM [inhibitor, partial curve, poor fit]	
Cc1ccc(-c2csc3ncnc(OCC(=O)NC(=O)NCc4ccco4)c23)cc1	active: 20.6 µM	
CCN1CCOC(=O)C1CC(=O)Nc1cccc(OC)c1 (configuration not stated)		inactive: -2.56% [at 46.1 µM]
Cc1nc2sc(C(c3ccc(F)cc3)N3CCOCC3)c(O)n2n1 (configuration not stated)	inconclusive: 3.98 µM [inhibitor, partial curve, poor fit]	
CC1CC(C)CN(C(=O)COC(=O)c2cc3ccccc3oc2=O)C1 (configuration not stated)	inconclusive: 15.8 µM [inhibitor, single point]	

Single records, from the list above.
`COc1ccc(/C=C/C(=O)c2cc(Br)ccc(=O)c2O)cc1` is listed with Potency: inconclusive: 35.5 µM [inhibitor, single point]
`CC1CC(C)CN(C(=O)COC(=O)c2cc3ccccc3oc2=O)C1` (configuration not stated) is listed with Potency: inconclusive: 15.8 µM [inhibitor, single point]
`CCN1CCOC(=O)C1CC(=O)Nc1cccc(OC)c1` (configuration not stated) is listed with activity change, negative = inhibition: inactive: -2.56% [at 46.1 µM]
`COc1cc(C=CC(=O)c2cc(OC)c(OC)c(OC)c2)cc(OC)c1OC` is listed with Potency: inconclusive: 2 µM [inhibitor, partial curve, poor fit]
